# Screen size: about 350,000 compounds; about 220 (0.063%) were called active. The shares of active, inactive and inconclusive entries below differ from those in the screen. Calls come from the whole dose curve; as a rule, active = well fitted activation curve with a large enough effect; inconclusive = small, poorly fitted or top-dose-only effect; inactive = no such curve, though single readings can be large or run the other way. Potencies beside an inconclusive call are fits to weak or partial responses and may not hold up.
# Assay: qHTS for Activators of Integrin-Mediated Alleviation for Muscular Dystrophy; note: nearly all actives have a fitted effect of over 60% in size;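 for activation: 100% = response of the positive control SU9516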
# Conditions: alpha7betagal myoblasts, beta-gal FDG fluorescence, 48 h; activation: at 38.3 µM (top of the series)
# Summary of the method: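 Alpha7betagal+/- myoblasts (passage 13) were plated 16-24 hr, then exposed to compounds (1:260 dilution of DMSO stock) for 48 hours at 37C. After MPER lysis, β-galactosidase reporter activity was read as FDG fluorescence (ex 480/em 540) after 30 minutes.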
# Potency is the fitted concentration of half-maximal effect.
SMILES,Potency,activation
Cn1nnc(NC(=O)c2ccccc2F)n1,inactive,
COc1ccc(C(=O)Nc2ccnn2C2CCN(C(=O)C3CCOC3)CC2)cc1 (stereo not given),"inconclusive: 5.01 µM [activator, partial curve, poor fit]",
CCCCNC(=O)CCc1c(C)nc2c(c(C)nn2-c2ccccc2)c1C,"inconclusive: 5.62 µM [activator, partial curve, poor fit]",
CCOC(=O)C1CCN(C(=O)c2cc3c(OC)c(OC)c(OC)cc3[nH]2)CC1,"inconclusive: 5.01 µM [activator, single point]",
CCc1cc2c(N=Nc3c(O)[nH]c4ccccc34)ncnc2s1,inactive,
Nc1cc(=O)[nH]c(SCC(=O)Nc2ccc(F)c(Cl)c2)n1,"inconclusive: 2.82 µM [activator, single point]",
CC(C)CCCCCCCCCCCCC(=O)NCC(=O)NC1C(O)C(O)C(Nc2ncnc3nc[nH]c23)OC1C(O)CO (stereo not given),,inconclusive: -51.8% [activator]
COc1ccc(-n2cc(-c3ccc(C)cc3)[n+]3c2SCC3)cc1,,inconclusive: -21.1% [activator]
O=C(O)c1ccc(/C=N/Nc2ncc(C(F)(F)F)cc2Cl)cc1,"inconclusive: 1.78 µM [activator, partial curve, poor fit]",
Cc1cccc(NCC(=O)N/N=C\c2ccccn2)c1,"inconclusive: 12.6 µM [activator, partial curve, poor fit]",
CC(OC(=O)CNC(=O)c1ccco1)C(=O)N(C)c1ccccc1 (stereo not given),"inconclusive: 12.6 µM [activator, partial curve, poor fit]",
O=C(CN1C(=O)NC2(CCCC2)C1=O)N1CCN(c2ccc(C(F)(F)F)cc2[N+](=O)[O-])CC1,"inconclusive: 1.12 µM [activator, partial curve, poor fit]",
CCn1c2ccccc2c2cc(N=C3SC(CC(=O)Nc4ccccc4OC)C(=O)N3C)ccc21 (stereo not given),,inconclusive: 70.8% [activator]
O=C(O)CSc1ccc(S(=O)(=O)N2CCCC2)cn1,"inconclusive: 5.01 µM [activator, single point]",
CCNC(=O)C(=O)Nc1cc2c3c(c1)CCN3C(=O)CC2,"inconclusive: 12.6 µM [activator, partial curve]",
Cc1cccc(-n2c(CNC(=O)c3cccc([N+](=O)[O-])c3C)n[nH]c2=S)c1,"inconclusive: 12.6 µM [activator, single point]",
O=C(N/N=C\c1cccc(OC(=O)c2ccco2)c1)c1ccc2c(c1)OCO2,inactive,
CCn1nnnc1NC(=O)c1cc(OC)c(OC)c(OC)c1,"inconclusive: 12.6 µM [activator, single point]",
COc1ccc(CCNC(=O)CC(=O)N/N=C/c2ccc(Br)cc2)cc1OC,"inconclusive: 5.01 µM [activator, single point]",
CC(C)(C)C1C/C(=C/c2ccccn2)C(=O)/C(=C/c2ccccn2)C1 (stereo not given),,inconclusive: -52.2% [activator]
CC1C(=O)C(C)C(c2cc(Br)ccc2O)NC1c1cc(Br)ccc1O (stereo not given),inactive,
CSc1cc(C)c(OCC(=O)Nc2ccc(NC(C)=O)cc2)c(C)c1,"inconclusive: 5.01 µM [activator, single point]",
Cc1cc(-c2ccccc2)nc2c(Br)c(C(=O)O)nn12,"inconclusive: 28.2 µM [activator, single point]",
CSc1ccc(-c2cccc([N+](=O)[O-])c2)nn1,inactive,

# Single values from the list.
# Potency with `CSc1cc(C)c(OCC(=O)Nc2ccc(NC(C)=O)cc2)c(C)c1` reads inconclusive: 5.01 µM [activator, single point]
# Potency with `CCn1nnnc1NC(=O)c1cc(OC)c(OC)c(OC)c1` reads inconclusive: 12.6 µM [activator, single point]

# (further entries)

SMILES,Potency,activation
CC(C)CNC(=O)C1CCCN1S(=O)(=O)c1ccc(Cl)cc1 (stereo not given),"inconclusive: 11.2 µM [activator, partial curve, poor fit]",
Cc1ccc(CS(=O)(=O)Cc2ccc(C(=O)NC3CCCC3)o2)cc1,"inconclusive: 1.78 µM [activator, single point]",
COc1ccc(Cl)cc1NC(=S)Nc1cccc(C)c1,"inconclusive: 5.01 µM [activator, single point]",
NC(=O)C1(Nc2ccccc2Cl)CCCC1,"inconclusive: 3.55 µM [activator, single point]",
Cc1ccc(C)c(C(=O)Nc2cc(C)nn2-c2nc(C)cc(C)n2)c1,"inconclusive: 6.31 µM [activator, partial curve, poor fit]",
O=S(=O)(c1ccc(F)cc1)N1CCCNCC1,"inconclusive: 28.2 µM [activator, single point]",
Cc1cc(C)nc(NC(=O)c2cccs2)n1,"inconclusive: 8.91 µM [activator, single point]",
O=C(CCn1c(=O)c2sccc2n(Cc2cc(=O)n3ccccc3n2)c1=O)NCc1ccco1,inactive,
Cc1ccc(C(=O)Nc2nc(-c3cc(Cl)sc3Cl)cs2)cc1,inactive,
COc1ccc(C(=O)C(C)OC(=O)CCN2C(=O)C3CC=CCC3C2=O)cc1 (stereo not given),"inconclusive: 2.51 µM [activator, full curve, poor fit]",
CCOC(=O)C(C#N)c1ccccn1 (stereo not given),inactive,
COc1ccc(C(=O)Nc2ccc(N3CCN(C)CC3)cc2)cc1OC,inactive,
Cc1ccc(-n2ncc3c(Nc4c(C)n(C)n(-c5ccccc5)c4=O)ncnc32)c(C)c1,inactive,
NC(=O)c1ccccc1OCC(=O)NS(=O)(=O)c1ccc(Cl)cc1,inactive,
Cc1cc(NC(=O)c2cccc(Oc3ccccc3)c2)n[nH]1,inactive,
Cc1c(Br)c([N+](=O)[O-])nn1C(C)C(=O)NCC1CCCO1 (stereo not given),"inconclusive: 28.2 µM [activator, single point]",
COc1ccc(NC(C)=O)cc1S(=O)(=O)NC(Cc1ccccc1)C(=O)NCc1ccccc1C (stereo not given),"inconclusive: 5.01 µM [activator, single point]",
FC(F)Oc1ccc(NC(=S)NC2CCCCCCC2)cc1,inactive,
Cc1ccsc1C(=O)NNC(=S)NC1CCCCC1,"inconclusive: 5.62 µM [activator, partial curve, poor fit]",
CCCCC12CN3CC(C)(CN(C1)C3c1ccc([N+](=O)[O-])o1)C2=O (stereo not given),inactive,
Cc1ccc(OCCC(=O)OCC(=O)N2CC(=O)Nc3ccccc32)cc1,"inconclusive: 3.16 µM [activator, single point]",
COc1ccc(-n2c(SC)nc3sc4c(c3c2=O)CCN(C)C4)cc1,"inconclusive: 5.01 µM [activator, single point]",
Cc1ccc(Nc2nc(N/N=C/c3c[nH]c4ccccc34)nc(N3CCOCC3)n2)cc1,inactive,
CC(OC(=O)C1CC1C)C(=O)Nc1ccc(Cl)cn1 (stereo not given),"inconclusive: 22.4 µM [activator, single point]",

SMILES,Potency,activation
c1ccc(C2CNCCc3ccccc32)cc1 (stereo not given),"inconclusive: 0.447 µM [activator, partial curve, poor fit]",
CC1(C)Cc2c(c(N3CCOCC3)nc3sc(C(=O)Nc4ccccc4)c(N)c23)CO1,"inconclusive: 4.47 µM [activator, partial curve]",
O=C(COC(=O)c1ccccc1Cl)NC1CCCCCC1,"inconclusive: 5.01 µM [activator, partial curve, poor fit]",
CN(C)CCNC(=O)C(c1ccccc1)c1ccccc1,"inconclusive: 5.01 µM [activator, single point]",
COC(=O)c1ccccc1NC(=O)CCn1c(=O)oc2ccccc21,"inconclusive: 28.2 µM [activator, single point]",
O=C(NCCc1ccccc1)C1CCCN(S(=O)(=O)c2cccc3nsnc23)C1 (stereo not given),"inconclusive: 11.2 µM [activator, partial curve, poor fit]",
COc1ccc(-n2nc3c(N4CCC(C(=O)NCC(C)c5ccccc5)CC4)nnc(C)c3c2C)cc1 (stereo not given),inactive,
CCCc1cc(=O)oc2cc(OCC(=O)NCCCN3CCOCC3)c(Cl)cc12,inactive,
COc1cc(Cl)c(C)cc1NC(=O)CSc1nnc(-c2cccnc2)n1Cc1ccco1,"inconclusive: 2 µM [activator, single point]",
O=S(=O)(NCc1cn2ccccc2n1)c1ccccc1F,inactive,
O=C(O)c1ccc(CS(=O)(=O)c2ccc(Br)cc2)cc1,inactive,
Nc1ccc(S(=O)(=O)Nc2cnc3ccccc3n2)cc1,"inconclusive: 28.2 µM [activator, single point]",
CCOc1cc(/C=N/NC(=O)Cc2ccc(C(F)(F)F)cc2[N+](=O)[O-])c(Br)cc1OC,inactive,
CC(C)c1ccc(C(=O)CSc2ncn[nH]2)cc1,inactive,
O=C(CNC(=O)c1ccco1)Nc1ccc(Br)cc1,"inconclusive: 28.2 µM [activator, single point]",
O=C(CN1C(=O)c2ccccc2S1(=O)=O)c1ccc(F)c(F)c1,"inconclusive: 11.2 µM [activator, single point]",
Cc1ccc(S(=O)(=O)NCCc2c[nH]c3ccccc23)cc1,"inconclusive: 0.794 µM [activator, single point]",
Cc1ccc(S(=O)(=O)c2nc(S(C)(=O)=O)sc2N2CC(C)OC(C)C2)cc1 (stereo not given),,inconclusive: -41.8% [activator]
CCCCSCCCNC(=O)C1CCC(CNS(=O)(=O)c2ccccc2)CC1 (stereo not given),"inconclusive: 10 µM [activator, single point]",
CCOC(=O)C1(CCOc2ccccc2)CCN(Cc2ccc(O)c(Cl)c2)CC1,"inconclusive: 3.55 µM [activator, single point]",
Cc1nc(SCC(=O)N2CCCCCC2)c2c(=O)n(C)c(=O)n(CC(C)C)c2n1,"inconclusive: 28.2 µM [activator, single point]",
O=C(NCCCn1ccnc1)c1ccc(Cl)s1,"inconclusive: 3.16 µM [activator, single point]",

# As a short view, some entries already given:
SMILES,Potency,activation
Cc1ccc(CS(=O)(=O)Cc2ccc(C(=O)NC3CCCC3)o2)cc1,"inconclusive: 1.78 µM [activator, single point]",
COc1ccc(Cl)cc1NC(=S)Nc1cccc(C)c1,"inconclusive: 5.01 µM [activator, single point]",
NC(=O)C1(Nc2ccccc2Cl)CCCC1,"inconclusive: 3.55 µM [activator, single point]",
Cc1ccc(C)c(C(=O)Nc2cc(C)nn2-c2nc(C)cc(C)n2)c1,"inconclusive: 6.31 µM [activator, partial curve, poor fit]",
O=S(=O)(c1ccc(F)cc1)N1CCCNCC1,"inconclusive: 28.2 µM [activator, single point]",
Cc1cc(C)nc(NC(=O)c2cccs2)n1,"inconclusive: 8.91 µM [activator, single point]",
O=C(CCn1c(=O)c2sccc2n(Cc2cc(=O)n3ccccc3n2)c1=O)NCc1ccco1,inactive,
Cc1ccc(C(=O)Nc2nc(-c3cc(Cl)sc3Cl)cs2)cc1,inactive,
COc1ccc(C(=O)C(C)OC(=O)CCN2C(=O)C3CC=CCC3C2=O)cc1 (stereo not given),"inconclusive: 2.51 µM [activator, full curve, poor fit]",
CCOC(=O)C(C#N)c1ccccn1 (stereo not given),inactive,
COc1ccc(C(=O)Nc2ccc(N3CCN(C)CC3)cc2)cc1OC,inactive,
Cc1ccc(-n2ncc3c(Nc4c(C)n(C)n(-c5ccccc5)c4=O)ncnc32)c(C)c1,inactive,
NC(=O)c1ccccc1OCC(=O)NS(=O)(=O)c1ccc(Cl)cc1,inactive,
Cc1cc(NC(=O)c2cccc(Oc3ccccc3)c2)n[nH]1,inactive,
Cc1c(Br)c([N+](=O)[O-])nn1C(C)C(=O)NCC1CCCO1 (stereo not given),"inconclusive: 28.2 µM [activator, single point]",
COc1ccc(NC(C)=O)cc1S(=O)(=O)NC(Cc1ccccc1)C(=O)NCc1ccccc1C (stereo not given),"inconclusive: 5.01 µM [activator, single point]",
FC(F)Oc1ccc(NC(=S)NC2CCCCCCC2)cc1,inactive,
Cc1ccsc1C(=O)NNC(=S)NC1CCCCC1,"inconclusive: 5.62 µM [activator, partial curve, poor fit]",
CCCCC12CN3CC(C)(CN(C1)C3c1ccc([N+](=O)[O-])o1)C2=O (stereo not given),inactive,
Cc1ccc(OCCC(=O)OCC(=O)N2CC(=O)Nc3ccccc32)cc1,"inconclusive: 3.16 µM [activator, single point]",
